These are yes or no findings as the source states them, for the method shown. Binding seen in cells or lysates may run through a third protein. A yes stands for co-enrichment or nearness to the bait. Other partners may have been found.
target: c-Myc–TRC40_(D74E), ATPase-impaired trap mutant of TRC40 (UniProt O43681)

Amino acid sequences for entries named in this document (tags omitted). A change or cut given only in a name is not applied to a line headed by its entry.
UniProt O43681: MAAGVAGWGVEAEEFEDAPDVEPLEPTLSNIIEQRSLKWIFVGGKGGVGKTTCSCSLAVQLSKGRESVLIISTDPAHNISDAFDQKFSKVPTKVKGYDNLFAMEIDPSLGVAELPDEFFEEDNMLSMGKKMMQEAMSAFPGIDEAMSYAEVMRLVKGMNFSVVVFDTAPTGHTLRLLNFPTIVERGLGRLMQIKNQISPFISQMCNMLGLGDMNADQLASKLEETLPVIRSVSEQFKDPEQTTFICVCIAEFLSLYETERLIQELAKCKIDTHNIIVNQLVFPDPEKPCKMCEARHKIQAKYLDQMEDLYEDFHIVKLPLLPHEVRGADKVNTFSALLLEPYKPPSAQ

Row | Binder | binding
1 | syntaxin Stx5 (protein, UniProt Q13190 1-355) MIPRKRYGSKNTDQGVYLGLSKTQVLSPATAGSSSSDIAPLPPPVTLVPPPPDTMSCRDRTQEFLSACKSLQTRQNGIQTNKPALRAVRQRSEFTLMAKRIGKDLSNTFAKLEKLTILAKRKSLFDDKAVEIEELTYIIKQDINSLNKQIAQLQDFVRAKGSQSGRHLQTHSNTIVVSLQSKLASMSNDFKSVLEVRTENLKQQRSRREQFSRAPVSALPLAPNHLGGGAVVLGAESHASKDVAIDMMDSRTSQQLQLIDEQDSYIQSRADTMQNIESTIVELGSIFQQLAHMVKEQEETIQRIDENVLGAQLDVEAAHSEILKYFQSVTSNRWLMVKIFLILIVFFIIFVVFLA | binds
2 | UBE2J1 (protein, UniProt Q9Y385 1-318) METRYNLKSPAVKRLMKEAAELKDPTDHYHAQPLEDNLFEWHFTVRGPPDSDFDGGVYHGRIVLPPEYPMKPPSIILLTANGRFEVGKKICLSISGHHPETWQPSWSIRTALLAIIGFMPTKGEGAIGSLDYTPEERRALAKKSQDFCCEGCGSAMKDVLLPLKSGSDSSQADQEAKELARQISFKAEVNSSGKTISESDLNHSFSLTDLQDDIPTTFQGATASTSYGLQNSSAASFHQPTQPVAKNTSMSPRQRRAQQQSQRRLSTSPDVIQGHQPRDNHTDHGGSAVLIVILTLALAALIFRRIYLANEYIFDFEL | binds
3 | LAP2B (protein, UniProt P42167 1-454) MPEFLEDPSVLTKDKLKSELVANNVTLPAGEQRKDVYVQLYLQHLTARNRPPLPAGTNSKGPPDFSSDEEREPTPVLGSGAAAAGRSRAAVGRKATKKTDKPRQEDKDDLDVTELTNEDLLDQLVKYGVNPGPIVGTTRKLYEKKLLKLREQGTESRSSTPLPTISSSAENTRQNGSNDSDRYSDNEEDSKIELKLEKREPLKGRAKTPVTLKQRRVEHNQSYSQAGITETEWTSGSSKGGPLQALTRESTRGSRRTPRKRVETSEHFRIDGPVISESTPIAETIMASSNESLVVNRVTGNFKHASPILPITEFSDIPRRAPKKPLTRAEVGEKTEERRVERDILKEMFPYEASTPTGISASCRRPIKGAAGRPLELSDFRMEESFSSKYVPKYVPLADVKSEKTKKGRSIPVWIKILLFVVVAVFLFLVYQAMETNQVNPFSNFLHVDPRKSN | binds
4 | DCAKD (protein, UniProt Q8WVC6 1-231) MFLVGLTGGIASGKSSVIQVFQQLGCAVIDVDVMARHVVQPGYPAHRRIVEVFGTEVLLENGDINRKVLGDLIFNQPDRRQLLNAITHPEIRKEMMKETFKYFLRGYRYVILDIPLLFETKKLLKYMKHTVVVYCDRDTQLARLMRRNSLNRKDAEARINAQLPLTDKARMARHVLDNSGEWSVTKRQVILLHTELERSLEYLPLRFGVLTGLAAIASLLYLLTHYLLPYA | binds
5 | UBL4A (protein, UniProt P11441 1-157) MQLTVKALQGRECSLQVPEDELVSTLKQLVSEKLNVPVRQQRLLFKGKALADGKRLSDYSIGPNSKLNLVVKPLEKVLLEEGEAQRLADSPPPQVWQLISKVLARHFSAADASRVLEQLQRDYERSLSRLTLDDIERLASRFLHPEVTETMEKGFSK | binds

target: c-Myc–TRC40_(D74E), ATPase-impaired trap mutant of TRC40 (UniProt O43681); remark: another data set of the same source

Row | Binder | binding
6 | golgin-84 (also known as GOLGA5) (protein, UniProt Q8TBA6 1-731) MSWFVDLAGKAEDLLNRVDQGAATALSRKDNASNIYSKNTDYTELHQQNTDLIYQTGPKSTYISSAADNIRNQKATILAGTANVKVGSRTPVEASHPVENASVPRPSSHFVRRKKSEPDDELLFDFLNSSQKEPTGRVEIRKEKGKTPVFQSSQTSSVSSVNPSVTTIKTIEENSFGSQTHEAASNSDSSHEGQEESSKENVSSNAACPDHTPTPNDDGKSHELSNLRLENQLLRNEVQSLNQEMASLLQRSKETQEELNKARARVEKWNADHSKSDRMTRGLRAQVDDLTEAVAAKDSQLAVLKVRLQEADQLLSTRTEALEALQSEKSRIMQDQSEGNSLQNQALQTFQERLHEADATLKREQESYKQMQSEFAARLNKVEMERQNLAEAITLAERKYSDEKKRVDELQQQVKLYKLNLESSKQELIDYKQKATRILQSKEKLINSLKEGSGFEGLDSSTASSMELEELRHEKEMQREEIQKLMGQIHQLRSELQDMEAQQVNEAESAREQLQDLHDQIAGQKASKQELETELERLKQEFHYIEEDLYRTKNTLQSRIKDRDEEIQKLRNQLTNKTLSNSSQSELENRLHQLTETLIQKQTMLESLSTEKNSLVFQLERLEQQMNSASGSSSNGSSINMSGIDNGEGTRLRNVPVLFNDTETNLAGMYGKVRKAASSIDQFSIRLGIFLRRYPIARVFVIIYMALLHLWVMIVLLTYTPEMHHDQPYGK | binds
7 | CASP (encoded by CUX1; isoform 4) (protein, UniProt Q13948 1-678) MAANVGSMFQYWKRFDLQQLQRELDATATVLANRQDESEQSRKRLIEQSREFKKNTPEDLRKQVAPLLKSFQGEIDALSKRSKEAEAAFLNVYKRLIDVPDPVPALDLGQQLQLKVQRLHDIETENQKLRETLEEYNKEFAEVKNQEVTIKALKEKIREYEQTLKNQAETIALEKEQKLQNDFAEKERKLQETQMSTTSKLEEAEHKVQSLQTALEKTRTELFDLKTKYDEETTAKADEIEMIMTDLERANQRAEVAQREAETLREQLSSANHSLQLASQIQKAPDVEQAIEVLTRSSLEVELAAKEREIAQLVEDVQRLQASLTKLRENSASQISQLEQQLSAKNSTLKQLEEKLKGQADYEEVKKELNILKSMEFAPSEGAGTQDAAKPLEVLLLEKNRSLQSENAALRISNSDLSGRCAELQVRITEAVATATEQRELIARLEQDLSIIQSIQRPDAEGAAEHRLEKIPEPIKEATALFYGPAAPASGALPEGQVDSLLSIISSQRERFRARNQELEAENRLAQHTLQALQSELDSLRADNIKLFEKIKFLQSYPGRGSGSDDTELRYSSQYEERLDPFSSFSKRERQRKYLSLSPWDKATLSMGRLVLSNKMARTIGFFYTLFLHCLVFLVLYKLAWSESMERDCATFCAKKFADHLHKFHENDNGAAAGDLWQ | binds

Reference: article PMC6633398
